The other results are listed elsewhere or left out.
compound: c1cn2cc(-c3ccc4cn[nH]c4c3)nc(Nc3ccc(N4CCOCC4)cc3)c2n1 [entospletinib]; test: log2 fold change, soluble protein after heating vs DMSO (PISA); higher = thermal stabilisation; K562 cells, 10 uM, 30 min; active = over 0.2 and 3.5 SD of the protein, either way, in both replicates (recomputed)
Procedure, shortened: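 Soluble protein was quantified by TMTpro 16plex LC-MS/MS after channel sums were equalised. It was obtained as the supernatant after 21,000xg for 90 min from pooled aliquots of K562 cells (2×10^6 cells/mL, 10 μM compound, 30 min) heated for 3 min across 48°C-58°C and extracted in PBS with 0.5% NP-40 at 4°C. Thermal stability values are relative to control samples and come from duplicates. They are given as log2 fold changes.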

Sequences of proteins named here, by UniProt entry; tags and fusion partners are left off. A change or cut given only in a name is not applied to a line headed by its entry.
UniProt O15258: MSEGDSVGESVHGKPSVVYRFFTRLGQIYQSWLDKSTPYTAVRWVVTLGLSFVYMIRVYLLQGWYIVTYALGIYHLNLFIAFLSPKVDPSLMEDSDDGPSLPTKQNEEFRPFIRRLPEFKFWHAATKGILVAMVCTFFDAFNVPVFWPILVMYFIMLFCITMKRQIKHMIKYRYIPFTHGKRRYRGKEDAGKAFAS
UniProt Q9ULI2: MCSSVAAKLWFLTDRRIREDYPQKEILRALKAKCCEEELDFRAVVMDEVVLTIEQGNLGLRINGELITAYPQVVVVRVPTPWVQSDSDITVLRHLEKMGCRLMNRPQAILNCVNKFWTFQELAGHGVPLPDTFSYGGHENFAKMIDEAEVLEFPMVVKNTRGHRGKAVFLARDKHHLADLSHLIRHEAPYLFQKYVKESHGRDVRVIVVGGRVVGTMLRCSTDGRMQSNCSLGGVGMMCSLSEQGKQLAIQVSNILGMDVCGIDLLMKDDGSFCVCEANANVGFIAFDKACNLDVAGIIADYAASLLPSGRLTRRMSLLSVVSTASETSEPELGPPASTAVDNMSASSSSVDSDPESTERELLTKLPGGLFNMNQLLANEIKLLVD
UniProt Q06587: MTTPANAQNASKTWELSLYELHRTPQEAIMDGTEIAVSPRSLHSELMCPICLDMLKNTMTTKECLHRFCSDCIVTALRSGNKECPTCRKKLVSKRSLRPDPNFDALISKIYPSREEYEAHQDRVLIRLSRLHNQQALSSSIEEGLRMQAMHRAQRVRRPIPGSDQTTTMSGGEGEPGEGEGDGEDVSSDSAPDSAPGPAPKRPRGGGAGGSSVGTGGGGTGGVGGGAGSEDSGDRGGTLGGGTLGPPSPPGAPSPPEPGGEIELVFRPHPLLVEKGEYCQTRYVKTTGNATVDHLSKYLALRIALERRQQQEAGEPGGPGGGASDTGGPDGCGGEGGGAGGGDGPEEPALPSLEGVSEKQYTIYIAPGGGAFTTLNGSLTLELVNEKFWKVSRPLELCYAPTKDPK
UniProt Q5UIP0: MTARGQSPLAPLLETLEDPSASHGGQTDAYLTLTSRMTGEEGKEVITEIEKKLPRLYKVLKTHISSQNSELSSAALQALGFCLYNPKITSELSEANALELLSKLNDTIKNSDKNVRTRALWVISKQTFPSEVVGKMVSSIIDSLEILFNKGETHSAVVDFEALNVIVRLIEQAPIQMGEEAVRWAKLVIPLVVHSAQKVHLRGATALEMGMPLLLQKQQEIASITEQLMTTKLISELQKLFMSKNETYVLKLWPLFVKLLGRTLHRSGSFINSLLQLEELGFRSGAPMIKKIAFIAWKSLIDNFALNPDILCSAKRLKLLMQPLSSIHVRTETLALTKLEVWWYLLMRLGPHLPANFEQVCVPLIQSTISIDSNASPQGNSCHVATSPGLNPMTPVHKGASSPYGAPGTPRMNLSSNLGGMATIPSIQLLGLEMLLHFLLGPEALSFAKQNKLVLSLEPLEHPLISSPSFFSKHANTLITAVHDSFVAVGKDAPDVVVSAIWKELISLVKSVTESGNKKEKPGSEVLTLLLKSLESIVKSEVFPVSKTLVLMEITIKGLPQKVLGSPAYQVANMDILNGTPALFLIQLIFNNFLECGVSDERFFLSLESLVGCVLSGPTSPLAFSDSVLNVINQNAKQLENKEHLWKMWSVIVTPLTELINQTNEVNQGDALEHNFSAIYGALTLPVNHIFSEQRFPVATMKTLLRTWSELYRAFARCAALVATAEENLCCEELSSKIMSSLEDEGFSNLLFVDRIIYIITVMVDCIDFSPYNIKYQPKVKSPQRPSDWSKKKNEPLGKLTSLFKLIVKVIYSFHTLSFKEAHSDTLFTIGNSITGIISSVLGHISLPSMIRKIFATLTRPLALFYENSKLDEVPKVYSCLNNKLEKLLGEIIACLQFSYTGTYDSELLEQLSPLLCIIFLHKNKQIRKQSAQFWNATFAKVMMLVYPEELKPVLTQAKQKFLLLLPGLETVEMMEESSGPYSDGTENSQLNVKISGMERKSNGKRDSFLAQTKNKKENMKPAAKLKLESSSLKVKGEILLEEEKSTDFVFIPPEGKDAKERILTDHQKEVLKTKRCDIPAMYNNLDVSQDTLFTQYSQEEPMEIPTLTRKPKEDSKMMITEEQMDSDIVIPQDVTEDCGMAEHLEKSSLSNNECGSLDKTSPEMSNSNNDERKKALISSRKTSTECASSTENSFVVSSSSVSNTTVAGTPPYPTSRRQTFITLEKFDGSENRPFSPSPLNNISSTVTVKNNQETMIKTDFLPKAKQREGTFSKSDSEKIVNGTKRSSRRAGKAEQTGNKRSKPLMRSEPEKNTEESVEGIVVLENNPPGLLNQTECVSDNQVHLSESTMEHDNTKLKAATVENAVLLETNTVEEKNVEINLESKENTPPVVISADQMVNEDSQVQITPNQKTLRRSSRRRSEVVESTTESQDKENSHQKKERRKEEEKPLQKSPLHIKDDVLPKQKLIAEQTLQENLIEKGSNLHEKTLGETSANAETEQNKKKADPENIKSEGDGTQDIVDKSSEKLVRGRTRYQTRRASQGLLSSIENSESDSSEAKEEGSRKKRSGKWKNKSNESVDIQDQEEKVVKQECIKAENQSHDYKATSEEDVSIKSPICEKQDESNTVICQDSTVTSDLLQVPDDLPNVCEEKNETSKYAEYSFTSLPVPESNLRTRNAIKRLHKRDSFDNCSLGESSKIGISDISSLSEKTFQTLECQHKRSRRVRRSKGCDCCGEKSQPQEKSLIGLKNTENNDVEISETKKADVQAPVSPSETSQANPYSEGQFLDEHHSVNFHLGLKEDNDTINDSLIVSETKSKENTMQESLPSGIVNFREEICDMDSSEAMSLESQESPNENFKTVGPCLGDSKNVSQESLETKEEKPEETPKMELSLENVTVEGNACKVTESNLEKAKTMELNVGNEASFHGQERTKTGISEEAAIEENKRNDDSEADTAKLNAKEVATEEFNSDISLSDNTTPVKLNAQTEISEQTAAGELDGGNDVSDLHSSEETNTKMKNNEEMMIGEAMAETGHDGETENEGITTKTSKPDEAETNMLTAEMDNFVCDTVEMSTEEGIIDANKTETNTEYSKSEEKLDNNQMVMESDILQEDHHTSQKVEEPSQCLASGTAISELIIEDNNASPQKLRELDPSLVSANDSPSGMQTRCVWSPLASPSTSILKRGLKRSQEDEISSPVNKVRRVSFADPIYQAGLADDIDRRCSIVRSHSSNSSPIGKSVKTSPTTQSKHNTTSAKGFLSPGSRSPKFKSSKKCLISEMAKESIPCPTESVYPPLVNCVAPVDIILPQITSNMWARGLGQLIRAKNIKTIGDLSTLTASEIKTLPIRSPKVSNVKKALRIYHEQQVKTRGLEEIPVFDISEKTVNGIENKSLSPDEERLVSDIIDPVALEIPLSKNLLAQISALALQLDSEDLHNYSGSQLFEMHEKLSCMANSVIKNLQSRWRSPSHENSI
UniProt Q9BRS2: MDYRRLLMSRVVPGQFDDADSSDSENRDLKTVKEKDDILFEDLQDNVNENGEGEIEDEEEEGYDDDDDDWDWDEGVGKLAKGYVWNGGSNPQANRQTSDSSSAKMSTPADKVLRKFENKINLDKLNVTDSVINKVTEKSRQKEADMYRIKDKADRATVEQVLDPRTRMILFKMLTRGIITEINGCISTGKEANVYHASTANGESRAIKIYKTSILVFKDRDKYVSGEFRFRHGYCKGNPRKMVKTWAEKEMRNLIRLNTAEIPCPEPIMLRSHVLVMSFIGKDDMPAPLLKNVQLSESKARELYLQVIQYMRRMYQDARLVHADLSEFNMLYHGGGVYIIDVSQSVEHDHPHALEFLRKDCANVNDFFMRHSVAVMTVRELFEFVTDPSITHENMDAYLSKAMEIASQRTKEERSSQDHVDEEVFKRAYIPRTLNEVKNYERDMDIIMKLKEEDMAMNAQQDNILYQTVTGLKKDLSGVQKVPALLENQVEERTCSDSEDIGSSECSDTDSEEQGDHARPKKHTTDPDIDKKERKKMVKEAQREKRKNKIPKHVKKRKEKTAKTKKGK
UniProt P08134, whole entry, looked up: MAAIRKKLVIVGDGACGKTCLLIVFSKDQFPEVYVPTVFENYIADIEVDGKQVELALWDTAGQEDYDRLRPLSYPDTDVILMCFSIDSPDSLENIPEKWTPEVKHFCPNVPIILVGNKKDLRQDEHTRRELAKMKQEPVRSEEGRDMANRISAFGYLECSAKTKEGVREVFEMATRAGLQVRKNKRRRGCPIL
UniProt Q4ADV7: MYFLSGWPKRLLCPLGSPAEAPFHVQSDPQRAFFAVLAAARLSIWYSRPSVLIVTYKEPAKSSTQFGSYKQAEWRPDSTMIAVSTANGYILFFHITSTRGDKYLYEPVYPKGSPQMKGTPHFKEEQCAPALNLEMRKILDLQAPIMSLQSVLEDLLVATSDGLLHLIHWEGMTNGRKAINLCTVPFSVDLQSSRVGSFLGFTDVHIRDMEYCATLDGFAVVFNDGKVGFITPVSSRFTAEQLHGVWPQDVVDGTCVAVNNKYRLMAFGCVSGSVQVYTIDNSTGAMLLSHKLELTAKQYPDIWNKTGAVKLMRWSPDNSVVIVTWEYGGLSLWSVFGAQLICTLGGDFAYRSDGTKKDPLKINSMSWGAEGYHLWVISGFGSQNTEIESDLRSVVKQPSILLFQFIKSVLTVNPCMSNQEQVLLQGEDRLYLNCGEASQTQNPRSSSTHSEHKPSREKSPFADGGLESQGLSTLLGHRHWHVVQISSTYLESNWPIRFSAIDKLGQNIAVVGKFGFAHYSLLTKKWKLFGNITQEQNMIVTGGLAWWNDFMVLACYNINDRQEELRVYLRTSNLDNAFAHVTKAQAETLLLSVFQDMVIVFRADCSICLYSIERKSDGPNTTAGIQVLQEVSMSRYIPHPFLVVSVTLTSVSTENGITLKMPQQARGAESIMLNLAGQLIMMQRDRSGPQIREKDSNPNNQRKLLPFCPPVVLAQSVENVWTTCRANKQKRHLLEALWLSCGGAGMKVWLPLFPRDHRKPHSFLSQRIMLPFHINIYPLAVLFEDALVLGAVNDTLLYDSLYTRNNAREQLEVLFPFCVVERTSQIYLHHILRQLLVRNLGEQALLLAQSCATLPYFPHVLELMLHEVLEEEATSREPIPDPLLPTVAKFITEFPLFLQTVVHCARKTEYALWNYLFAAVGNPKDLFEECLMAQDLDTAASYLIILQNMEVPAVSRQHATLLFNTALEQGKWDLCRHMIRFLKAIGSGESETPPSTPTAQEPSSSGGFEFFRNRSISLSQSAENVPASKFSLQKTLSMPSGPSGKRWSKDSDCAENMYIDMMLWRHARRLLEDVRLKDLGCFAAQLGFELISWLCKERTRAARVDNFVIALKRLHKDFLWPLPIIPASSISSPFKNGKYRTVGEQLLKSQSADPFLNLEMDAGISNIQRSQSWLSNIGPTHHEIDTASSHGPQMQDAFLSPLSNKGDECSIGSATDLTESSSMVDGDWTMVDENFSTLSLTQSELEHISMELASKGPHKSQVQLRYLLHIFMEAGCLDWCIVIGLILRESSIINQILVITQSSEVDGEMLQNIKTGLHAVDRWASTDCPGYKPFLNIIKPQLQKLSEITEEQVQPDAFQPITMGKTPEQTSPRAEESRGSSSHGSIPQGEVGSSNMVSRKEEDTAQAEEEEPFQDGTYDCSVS
UniProt Q9Y2P8: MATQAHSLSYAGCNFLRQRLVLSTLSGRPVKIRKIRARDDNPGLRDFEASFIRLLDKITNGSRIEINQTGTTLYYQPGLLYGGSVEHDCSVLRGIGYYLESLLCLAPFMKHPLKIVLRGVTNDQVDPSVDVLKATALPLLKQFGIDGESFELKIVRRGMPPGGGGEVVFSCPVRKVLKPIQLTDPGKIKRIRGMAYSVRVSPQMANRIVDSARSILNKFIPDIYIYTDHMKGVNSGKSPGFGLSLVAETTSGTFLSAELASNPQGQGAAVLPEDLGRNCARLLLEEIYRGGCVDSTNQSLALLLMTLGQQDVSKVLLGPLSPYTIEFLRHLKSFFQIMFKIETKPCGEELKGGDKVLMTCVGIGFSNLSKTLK
UniProt Q96DB5: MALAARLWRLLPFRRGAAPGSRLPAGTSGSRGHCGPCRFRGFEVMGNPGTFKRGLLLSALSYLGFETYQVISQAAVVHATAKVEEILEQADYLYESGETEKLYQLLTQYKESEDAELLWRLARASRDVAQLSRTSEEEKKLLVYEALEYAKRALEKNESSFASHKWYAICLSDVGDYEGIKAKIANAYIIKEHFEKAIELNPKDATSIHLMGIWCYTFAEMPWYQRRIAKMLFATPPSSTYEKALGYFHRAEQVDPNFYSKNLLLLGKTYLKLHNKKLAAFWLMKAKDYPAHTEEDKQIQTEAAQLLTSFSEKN
UniProt Q9Y3B8: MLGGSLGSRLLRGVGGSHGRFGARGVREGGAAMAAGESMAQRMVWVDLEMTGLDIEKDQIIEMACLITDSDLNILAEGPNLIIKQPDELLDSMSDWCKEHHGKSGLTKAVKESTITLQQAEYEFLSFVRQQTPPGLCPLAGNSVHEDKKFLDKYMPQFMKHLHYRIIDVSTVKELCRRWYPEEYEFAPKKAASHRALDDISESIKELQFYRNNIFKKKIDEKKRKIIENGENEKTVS

log2 fold change, inactive:
RER1 (UniProt O15258) 0.076, RIMKLB (UniProt Q9ULI2) 0.162, RHOT2 (UniProt Q8IXI1) -0.042, RING1 (UniProt Q06587) -0.131, RFFL (UniProt Q8WZ73) -0.262, RILP (UniProt Q96NA2) -0.001, RIF1 (UniProt Q5UIP0) 0.163, RIOK1 (UniProt Q9BRS2) 0.027, RHOC (UniProt P08134) 0, RIC1 (UniProt Q4ADV7) -0.012, RCL1 (UniProt Q9Y2P8) 0.062, RNF170 (UniProt Q96K19) -0.051, RCE1 (UniProt Q9Y256) 0.013, RNF181 (UniProt Q9P0P0) 0.003, RMDN1 (UniProt Q96DB5) 0.013, RBPJ (UniProt Q06330) -0.016, REXO2 (UniProt Q9Y3B8) 0.012, REEP6 (UniProt Q96HR9) 0.03, RNF113A (UniProt O15541) 0.024, RNF123 isoform 2 (UniProt Q5XPI4) -0.002, RCHY1 (UniProt Q96PM5) 0.113, RNF138 (UniProt Q8WVD3) 0.026, RBMX (UniProt P38159) 0.003, REPIN1 isoform 4 (UniProt Q9BWE0) 0.038

Reference: the supplement of paper PMC10849652
